{"source": "PubChem BioAssay AID248", "about": "(DTP/NCI, 2004)", "tested_on": "L1210 leukemia ip in BDF1 mice, survival T/C", "assay": "NCI In Vivo Anticancer Drug Screen. Data for tumor model L1210 Leukemia (intraperitoneal) in B6D2F1 (BDF1) mice", "details": "T/C endpoint: mean survival time, higher T/C = longer survival", "key": {"[1]": {"details": "dose: 400.0 mg/kg/injection, schedule: Q01DX001 (ip), vehicle: saline"}, "[2]": {"details": "dose: 400.0 mg/kg/injection, schedule: Q04DX003 (ip), vehicle: saline"}, "[3]": {"details": "dose: 300.0 mg/kg/injection, schedule: Q01DX001 (ip), vehicle: saline"}}, "note": "The list shows only some results of the screen, not a fair sample: it is rich in T/C values a quarter to a half above the control, in often repeated tests (any T/C) and in doses without a T/C. Other doses and runs of a compound stand elsewhere. T/C is the treated group as % of the vehicle group. Some entries give survivors of the animals treated and no T/C: the source holds a T/C of zero for them, seemingly a mark for toxic or unscored doses. Some survivor counts are full or nearly so, which does not show that the dose was tolerated: the source hardly ever lists a survival T/C far under the control, and the zero likely stands for such cases as well. Survivors were counted at the toxicity check, usually on the fifth day, unless a day is given; later deaths do not show. Schedule codes are those of the source, read here as Q, the interval in days (D) or hours (H), X, the number of doses. Some entries hold several experiments; their values stand side by side, smallest first. Some schedules carry Z or #; the key to these is not given. Where survival is the endpoint, this PubChem deposit counts one and a half times the control or more as active, and values a quarter to a half above the control carry no call in these data; other NCI protocols may use other cut-offs.", "data": [{"smiles": "Cc1cc(N(C)C)cc(C)c1C(=Nc1ccc(N=C(NO)c2c(C)cc(N(C)C)cc2C)cc1)NO", "values": [{"measurement": "survivor count", "setting": "[1]", "value": "1 of 4"}]}, {"smiles": "O=C(CCCC(=O)NNC(=O)Nc1cccc2ccccc12)NNC(=O)Nc1cccc2ccccc12", "values": [{"measurement": "survivor count", "setting": "[1]", "value": "3 of 4"}]}, {"smiles": "CNCC(SC)c1ccc(O)c(O)c1", "note": "(stereo not given)", "values": [{"measurement": "survivor count", "setting": "[2]", "value": "3 of 6"}]}, {"smiles": "CC(=NCC(=O)O)c1ccccc1", "values": [{"measurement": "survivor count", "setting": "dose: 200.0 mg/kg/injection, schedule: Q04DX003 (ip), vehicle: saline", "value": "0 of 6"}, {"measurement": "survivor count", "setting": "[2]", "value": "0 of 6"}]}, {"smiles": "N/N=C/C=N/Nc1cnccn1", "values": [{"measurement": "survivor count", "setting": "dose: 400.0 mg/kg/injection, schedule: Q01DX009 (ip), vehicle: Klucel (hydroxypropylcellulose) (HPC)", "value": "0 of 6"}]}, {"smiles": "N#Cc1ccc(C(=O)C=C(C(F)(F)F)C(F)(F)F)cc1", "values": [{"measurement": "survivor count", "setting": "dose: 25.0 mg/kg/injection, schedule: Q01DX009 (ip), vehicle: other", "value": "1 of 6"}, {"measurement": "survivor count", "setting": "dose: 100.0 mg/kg/injection, schedule: Q01DX009 (ip), vehicle: other", "value": "1 of 6"}, {"measurement": "survivor count", "setting": "dose: 200.0 mg/kg/injection, schedule: Q01DX009 (ip), vehicle: other", "value": "0 of 6"}, {"measurement": "survivor count", "setting": "dose: 400.0 mg/kg/injection, schedule: Q01DX009 (ip), vehicle: other", "value": "0 of 6"}]}, {"smiles": "CN(Cc1ccc(Cl)cc1)C(=O)Nc1cccc(C(F)(F)F)c1", "values": [{"measurement": "survivor count", "setting": "dose: 200.0 mg/kg/injection, schedule: Q01DX009 (ip), vehicle: Klucel (hydroxypropylcellulose) (HPC)", "value": "6 of 6"}]}, {"smiles": "Oc1c(Br)cc(Br)cc1C=Nc1ccc(I)cc1.Oc1c(Br)cc(Br)cc1C=Nc1ccc(I)cc1.[Co]", "values": [{"measurement": "survivor count", "setting": "dose: 400.0 mg/kg/injection, schedule: Q04DX003 (ip), vehicle: saline with Tween-80", "value": "3 of 3"}]}, {"smiles": "O=C(Nc1cccc(NC(=O)Nc2cccc(C3=NCCN3)c2)c1)Nc1cccc(C2=NCCN2)c1", "values": [{"measurement": "T/C", "setting": "dose: 25.0 mg/kg/injection, schedule: Q01DX Z (ip), vehicle: carboxymethylcellulose (CMC)", "value": "140 % of control"}, {"measurement": "T/C", "setting": "dose: 40.0 mg/kg/injection, schedule: Q01DX Z (ip), vehicle: carboxymethylcellulose (CMC)", "value": "134 % of control"}, {"measurement": "T/C", "setting": "dose: 55.5 mg/kg/injection, schedule: Q01DX Z (ip), vehicle: carboxymethylcellulose (CMC)", "value": "126 % of control"}, {"measurement": "T/C", "setting": "dose: 90.0 mg/kg/injection, schedule: Q01DX Z (ip), vehicle: carboxymethylcellulose (CMC)", "value": "128 % of control"}, {"measurement": "survivor count", "setting": "dose: 135.0 mg/kg/injection, schedule: Q01DX Z (ip), vehicle: saline", "value": "2 of 6"}]}, {"smiles": "CCCCCCCCP(=O)(N1CC1CC)N1CC1CC", "note": "(stereo not given)", "values": [{"measurement": "survivor count", "setting": "[1]", "value": "0 of 4"}]}, {"smiles": "CCN(CC)C(=S)Oc1ccc(OC(=S)N(CC)CC)cc1", "values": [{"measurement": "survivor count", "setting": "dose: 100.0 mg/kg/injection, schedule: Q04DX003 (ip), vehicle: saline with Tween-80", "value": "6 of 6"}]}, {"smiles": "O=C(Oc1ccc([N+](=O)[O-])cc1)c1ccc(CBr)cc1", "values": [{"measurement": "survivor count", "setting": "[2]", "value": "0 of 6"}]}, {"smiles": "COC(=O)c1ccccc1C[P+](c1ccccc1)(c1ccccc1)c1ccccc1", "values": [{"measurement": "survivor count", "setting": "dose: 12.5 mg/kg/injection, schedule: Q01DX001 (ip), vehicle: saline with Tween-80", "value": "3 of 6"}, {"measurement": "survivor count", "setting": "dose: 12.5 mg/kg/injection, schedule: Q01DX009 (ip), vehicle: saline with Tween-80", "value": "1 of 3 and 2 of 6"}, {"measurement": "survivor count", "setting": "dose: 12.5 mg/kg/injection, schedule: Q01DX009 (ip), vehicle: saline", "value": "2 of 3 and 4 of 6"}, {"measurement": "survivor count", "setting": "dose: 25.0 mg/kg/injection, schedule: Q01DX009 (ip), vehicle: saline with Tween-80", "value": "3 of 6 and 2 of 3"}, {"measurement": "survivor count", "setting": "dose: 50.0 mg/kg/injection, schedule: Q04DX002 (ip), vehicle: saline with Tween-80", "value": "4 of 6 and 3 of 3"}, {"measurement": "survivor count", "setting": "dose: 100.0 mg/kg/injection, schedule: Q04DX002 (ip), vehicle: Klucel (hydroxypropylcellulose) (HPC)", "value": "0 of 3 and 0 of 6"}, {"measurement": "survivor count", "setting": "dose: 100.0 mg/kg/injection, schedule: Q04DX002 (ip), vehicle: saline with Tween-80", "value": "0 of 3 and 0 of 6"}, {"measurement": "survivor count", "setting": "dose: 200.0 mg/kg/injection, schedule: Q04DX002 (ip), vehicle: Klucel (hydroxypropylcellulose) (HPC)", "value": "0 of 3 and 0 of 6"}, {"measurement": "survivor count", "setting": "dose: 400.0 mg/kg/injection, schedule: Q04DX002 (ip), vehicle: Klucel (hydroxypropylcellulose) (HPC)", "value": "0 of 3 and 0 of 6"}]}, {"smiles": "CCN(CC)CCCC(C)n1nnc2cc(Cl)ccc21", "note": "(stereo not given)", "values": [{"measurement": "survivor count", "setting": "[1]", "value": "1 of 4"}]}, {"smiles": "Cc1ccc(C[N+](C)(C)C)cc1", "values": [{"measurement": "survivor count", "setting": "dose: 75.0 mg/kg/injection, schedule: Q01DX001 (ip), vehicle: saline", "value": "2 of 6"}, {"measurement": "survivor count", "setting": "dose: 150.0 mg/kg/injection, schedule: Q01DX001 (ip), vehicle: saline", "value": "0 of 6"}, {"measurement": "survivor count", "setting": "[3]", "value": "0 of 6"}]}, {"smiles": "COc1cc(C=O)cc(O)c1O", "values": [{"measurement": "T/C", "setting": "dose: 250.0 mg/kg/injection, schedule: Q01DX Z (ip), vehicle: saline", "value": "138 % of control"}]}, {"smiles": "CCC(CC)NNC(CC)CC", "values": [{"measurement": "survivor count", "setting": "[3]", "value": "0 of 6"}]}]}
